For three substances, binding results are on record in publication PMC4370480.

By UniProt entry, the sequences of proteins in these tests, tags left out. Where a name states a change or a piece, a line headed by the entry shows the natural chain unless it says otherwise.
UniProt P13569: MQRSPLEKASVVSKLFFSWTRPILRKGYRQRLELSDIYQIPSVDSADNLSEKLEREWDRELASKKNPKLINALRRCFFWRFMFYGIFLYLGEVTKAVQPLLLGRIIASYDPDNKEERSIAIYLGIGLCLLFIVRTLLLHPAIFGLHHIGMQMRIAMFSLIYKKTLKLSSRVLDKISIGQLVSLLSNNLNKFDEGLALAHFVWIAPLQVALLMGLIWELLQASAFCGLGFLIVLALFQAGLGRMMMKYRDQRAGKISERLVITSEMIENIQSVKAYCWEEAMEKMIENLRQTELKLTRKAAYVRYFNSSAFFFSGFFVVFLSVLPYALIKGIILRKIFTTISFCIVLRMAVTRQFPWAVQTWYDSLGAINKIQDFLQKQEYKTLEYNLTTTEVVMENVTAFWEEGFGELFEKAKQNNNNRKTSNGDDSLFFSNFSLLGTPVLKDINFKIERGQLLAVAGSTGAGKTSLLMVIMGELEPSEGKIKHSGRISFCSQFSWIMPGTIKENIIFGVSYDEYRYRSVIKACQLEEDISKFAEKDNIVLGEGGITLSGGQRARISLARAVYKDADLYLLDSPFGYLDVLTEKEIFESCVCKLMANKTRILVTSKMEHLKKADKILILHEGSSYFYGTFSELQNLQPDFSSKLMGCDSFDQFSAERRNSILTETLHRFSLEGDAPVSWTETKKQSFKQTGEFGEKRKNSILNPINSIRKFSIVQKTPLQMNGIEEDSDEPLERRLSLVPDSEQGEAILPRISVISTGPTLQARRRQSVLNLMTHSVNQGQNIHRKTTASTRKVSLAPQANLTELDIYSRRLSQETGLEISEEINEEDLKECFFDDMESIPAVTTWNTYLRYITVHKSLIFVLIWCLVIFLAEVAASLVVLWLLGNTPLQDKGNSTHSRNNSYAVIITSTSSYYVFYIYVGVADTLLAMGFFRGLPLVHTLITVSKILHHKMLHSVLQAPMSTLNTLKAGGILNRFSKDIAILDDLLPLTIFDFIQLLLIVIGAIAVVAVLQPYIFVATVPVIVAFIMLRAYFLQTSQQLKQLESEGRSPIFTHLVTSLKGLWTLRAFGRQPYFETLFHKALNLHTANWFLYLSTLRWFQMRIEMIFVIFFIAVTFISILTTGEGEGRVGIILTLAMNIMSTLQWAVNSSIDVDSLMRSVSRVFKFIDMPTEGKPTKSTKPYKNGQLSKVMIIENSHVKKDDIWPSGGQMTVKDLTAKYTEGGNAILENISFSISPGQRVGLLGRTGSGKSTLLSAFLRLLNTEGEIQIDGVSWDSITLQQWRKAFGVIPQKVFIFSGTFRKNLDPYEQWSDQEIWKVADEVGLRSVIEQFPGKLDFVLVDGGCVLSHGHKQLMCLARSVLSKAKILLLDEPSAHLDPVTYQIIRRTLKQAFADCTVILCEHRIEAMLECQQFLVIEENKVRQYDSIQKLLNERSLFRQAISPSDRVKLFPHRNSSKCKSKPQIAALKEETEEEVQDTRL
UniProt Q9UBN7: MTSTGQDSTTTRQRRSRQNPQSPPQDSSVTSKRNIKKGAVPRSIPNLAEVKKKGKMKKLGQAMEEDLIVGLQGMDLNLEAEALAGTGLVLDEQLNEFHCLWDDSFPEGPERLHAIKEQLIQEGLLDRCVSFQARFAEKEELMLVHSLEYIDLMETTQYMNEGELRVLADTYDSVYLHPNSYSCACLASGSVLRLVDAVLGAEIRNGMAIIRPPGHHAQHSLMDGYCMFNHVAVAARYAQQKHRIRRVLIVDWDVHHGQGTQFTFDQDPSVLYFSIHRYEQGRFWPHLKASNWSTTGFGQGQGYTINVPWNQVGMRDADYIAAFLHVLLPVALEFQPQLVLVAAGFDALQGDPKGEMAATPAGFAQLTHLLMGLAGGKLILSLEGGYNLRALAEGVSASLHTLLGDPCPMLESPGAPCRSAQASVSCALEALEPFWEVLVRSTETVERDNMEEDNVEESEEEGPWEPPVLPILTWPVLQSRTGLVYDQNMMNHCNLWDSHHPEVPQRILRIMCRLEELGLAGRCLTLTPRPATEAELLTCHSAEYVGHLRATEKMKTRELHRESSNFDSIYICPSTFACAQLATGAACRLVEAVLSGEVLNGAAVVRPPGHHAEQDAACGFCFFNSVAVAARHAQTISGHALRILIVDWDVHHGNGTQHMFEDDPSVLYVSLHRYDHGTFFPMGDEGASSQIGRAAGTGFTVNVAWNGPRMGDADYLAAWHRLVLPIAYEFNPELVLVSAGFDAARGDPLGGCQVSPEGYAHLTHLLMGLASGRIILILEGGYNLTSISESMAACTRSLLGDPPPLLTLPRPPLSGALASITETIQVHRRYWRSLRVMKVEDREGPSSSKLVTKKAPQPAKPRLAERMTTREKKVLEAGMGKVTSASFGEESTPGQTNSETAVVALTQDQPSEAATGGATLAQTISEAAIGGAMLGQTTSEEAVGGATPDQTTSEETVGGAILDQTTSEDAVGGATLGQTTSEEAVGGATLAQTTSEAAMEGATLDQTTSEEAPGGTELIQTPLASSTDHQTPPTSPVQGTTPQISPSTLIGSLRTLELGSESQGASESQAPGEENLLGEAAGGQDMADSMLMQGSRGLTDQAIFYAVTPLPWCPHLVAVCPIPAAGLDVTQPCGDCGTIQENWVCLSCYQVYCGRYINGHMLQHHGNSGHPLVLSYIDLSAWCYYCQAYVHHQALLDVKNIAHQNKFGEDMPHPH
UniProt P04792: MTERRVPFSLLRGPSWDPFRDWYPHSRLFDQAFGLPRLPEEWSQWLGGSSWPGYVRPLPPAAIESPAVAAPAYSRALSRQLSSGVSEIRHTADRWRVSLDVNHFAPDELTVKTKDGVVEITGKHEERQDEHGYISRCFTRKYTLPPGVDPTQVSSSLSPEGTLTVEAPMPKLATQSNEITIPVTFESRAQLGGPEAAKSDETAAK

The target in assay [1] is N1303K CFTR (cystic fibrosis transmembrane conductance regulator, NBD2 mutant N1303K) (UniProt P13569). The assay is described as follows: co-IP; CFTR mutant immunoprecipitated with anti-CFTR antibody M3A7 and protein A/G-agarose beads from 2000 ug lysate of HEK 293 stable cell lines (50 mM NaCl, 150 mM Tris-HCl pH 7.4, 1% Nonidet P-40), 4 h at 4°C; blotted for each partner; cells untreated or treated with correctors C3+C4 (5 uM, 16 h), which reduced the binding.

The target in assay [2] is S1235R CFTR (cystic fibrosis transmembrane conductance regulator, NBD2 mutant S1235R) (UniProt P13569). Described as above.

Results are given in words; binding and its absence hold for the method and conditions named. Binding seen in cells or lysates may run through a third protein. Some binding calls cover weakened binding; strength is not graded here.

As to HDAC6 (from UniProt Q9UBN7 1-1215), the binding entry in assay [1] and in assay [2] was “binds” throughout.
Regarding VCP protein (from UniProt P55072 1-806), the binding entry in assay [1] and in assay [2] was “binds” in each case.
Turning to “heat shock protein 27 (from UniProt P04792 1-205)”, the binding entry in assay [1] and in assay [2] was “binds” throughout.
